PubChem BioAssay AID1347076 (National Center for Advancing Translational Sciences (NCATS), 2019)
The campaign covered roughly 400,000 compounds. About 13,000 (3.2%) were called active. The shares of active, inactive and inconclusive entries below differ from those in the screen. Calls come from the whole dose curve; as a rule, active = well fitted cell-killing curve with a large enough effect; inconclusive = small, poorly fitted or top-dose-only effect, or effect the other way; inactive = flat fitted curve, though single readings scatter. A potency beside an inconclusive call is a rough fit, not a confirmed value.
% is set by controls: 0 for no effect and ±100 for the full control effect; potency is the fitted concentration of half-maximal effect.

Experiment: qHTS assay for MDR1-selective chemotherapeutics: Primary screen using the drug-selected MDR subline cells KB-V1; note: nearly all actives have a fitted effect of over 60% in size
Details: KB-V1 MDR cells viability, CellTiter-Glo, 72 h; activity change, negative = cytotoxicity: at 46.1 µM (top of the series)
In short: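 Luminescent ATP read-out (CellTiter-Glo, 10 min) measures survival of drug-selected KB-V1 MDR cells after 72 h, 37 degrees C compound exposure. Medium: phenol-red-free DMEM, 10% FBS. Values from fitted concentration-response curves.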
In the case of `COc1ccc2c(c1)O[C@@H](c1cccc(C(F)(F)F)c1)[C@H](OC(=O)Nc1ccc(OC(F)F)cc1)C2=O`, the Potency is reported as inconclusive: 25.9 µM [cytotoxic, single point].
For `CC(C)=CCC/C(C)=C/CNC(=O)C[C@H]1C[C@H](C(=O)N(C(C)C)C(C)C)[C@@]2(C)c3[nH]c4ccc(Cl)cc4c3CCN2C1=O`, the “activity change, negative = cytotoxicity” value was inactive: 6.04%.
For `COc1ccc(OC)c(C2Nc3c(C)cc(C)cc3-c3cc(C)nn32)c1` (stereo not given), the “activity change, negative = cytotoxicity” value was inactive: -19.6%.
For `Cc1ccccc1NC(=O)CN1C(=O)COc2ccc(S(=O)(=O)N3CCCC3)cc21`, the activity change, negative = cytotoxicity was inconclusive: -33.2% [cytotoxic].
In the case of `CCC1(C)Cc2c(sc3c2c(=O)n(-c2ccccc2)c(=O)n3C)CO1` (stereo not given), the activity change, negative = cytotoxicity is reported as inconclusive: -27.8%.
For `C=CCSc1nc(C)cc(/C=C\c2ccccc2)c1C#N`, the Potency was inconclusive: 6.51 µM [cytotoxic, full curve, poor fit].
For `COc1ccc([N+](=O)[O-])cc1NC(=O)C(C)N(C)Cc1ccc(Br)cc1` (stereo not given), the Potency was inconclusive: 6.51 µM [cytotoxic, partial curve].
In the case of `O=C(COC(=O)C1CC2CCCC(C1)C2=O)Nc1ccc(Cl)cn1` (stereo not given), the Potency is reported as inconclusive: 10.3 µM [rising, partial curve].
With `CCNC(=O)OCCC12CC3CC(CC(C3)C1)C2` the “activity change, negative = cytotoxicity” value was inactive: 2.23%.
With `CC12CCC(=O)N1C(C(=O)NNC(=O)COc1ccc(Br)cc1)CS2` (stereo not given) the Potency was inconclusive: 25.9 µM [rising, single point].
In the case of `COC(=O)[C@]12CCCCC=C1N(CCC1=CCCCC1)C(=O)[C@H](CC(=O)N1CCOCC1)C2`, the Potency is reported as inconclusive: 23.1 µM [rising, single point].
For `FC(F)(F)COc1nc(N2CCOCC2)nc(N(c2ccccc2)c2ccccc2)n1`, the Potency was inconclusive: 18.4 µM [cytotoxic, single point].
With `COc1ccccc1NS(=O)(=O)c1cccc(C(=O)NCC2(N3CCCCC3)CCCCC2)c1` the “activity change, negative = cytotoxicity” value was inactive: 0%.
With `Cc1ccc(-c2nnc(NCc3nc4ccccc4[nH]3)c3ccccc23)cc1S(=O)(=O)N(C)C` the Potency was inconclusive: 9.2 µM [cytotoxic, partial curve, poor fit].
In the case of `Oc1cccc(/C=N/N=C/c2cccc(O)c2O)c1O`, the Potency is reported as inconclusive: 29.1 µM [cytotoxic, single point].
In the case of `NC(=O)c1ncn([C@@H]2O[C@H](CO)[C@@H](O)[C@H]2O)n1`, the “activity change, negative = cytotoxicity” value is reported as inactive: -1.84%.
For `Cc1cccc([C@@H]2[C@@H]3C(=O)N(Cc4ccccc4)C(=O)[C@@H]3[C@]3(Cc4ccc(Cl)cc4)C(=O)N(c4cccc(Br)c4)C(=O)N23)c1`, the “activity change, negative = cytotoxicity” value was inactive: 29.8%.
With `CC(=O)Nc1cc(-c2cccc(F)c2)cn2c(-c3ccc(F)c(Cl)c3)cnc12` the Potency was inconclusive: 6.51 µM [cytotoxic, partial curve, poor fit].
In the case of `CCc1cc(C(=O)c2ccc(Br)cc2)c(NC(=O)CN(CC)CC)s1`, the “activity change, negative = cytotoxicity” value is reported as inactive: -23%.
For `CC(C)COP(=O)(c1ccc(N(C)C)cc1)C(Nc1ccccc1)c1cccnc1` (stereo not given), the Potency was active: 23.1 µM.
With `CCc1nc2ccc(C(=O)N3CCN(C(C)=O)CC3)cn2c1N(C)C(=O)c1cccc(OC)c1` the “activity change, negative = cytotoxicity” value was inactive: 3.14%.
For `COc1cccc(OCc2cc(C(=O)N3CCN(C4CCCC4)CC3)no2)c1`, the Potency was inconclusive: 20.6 µM [cytotoxic, single point].
In the case of `Cc1ccn(CCC(=O)NC2CCCc3c2cnn3-c2cccc(C)c2C)n1` (stereo not given), the “activity change, negative = cytotoxicity” value is reported as inactive: -4.23%.
In the case of `CC(OC(=O)Cc1ccc(F)cc1)C(=O)N1CCc2ccccc21` (stereo not given), the Potency is reported as inconclusive: 18.4 µM [cytotoxic, single point].
For `CN(CC(=O)Nc1cccc(S(=O)(=O)NC2=NCCCCC2)c1)Cc1ccc(C(C)(C)C)cc1`, the Potency was inconclusive: 1.84 µM [cytotoxic, partial curve, poor fit].
For `CC(=O)c1sc(Nc2cccc(C)c2)nc1C`, the Potency was inconclusive: 18.4 µM [cytotoxic, single point].
In the case of `CNC(=O)C[C@H]1C(=O)N(C2CCCCC2)C[C@@H]1CSC`, the Potency is reported as inconclusive: 29.1 µM [rising, single point].
In the case of `Cc1ccc(-c2nnc(Nc3cccc(Cl)c3)c3ccccc23)cc1S(=O)(=O)N1CCCCC1`, the “activity change, negative = cytotoxicity” value is reported as inactive: 16.9%.
With `CC(C)NC(=O)C1(C)CSCC(=O)N1C1CC1` (stereo not given) the “activity change, negative = cytotoxicity” value was inactive: 3.72%.
With `CC(=O)Nc1ccc(NC(=O)CSc2ccc3nnc(CCNS(=O)(=O)c4ccc(C)cc4)n3n2)cc1` the Potency was inconclusive: 29.1 µM [rising, single point].
In the case of `CN(C(=O)Nc1ccc(C(C)(C)C)cc1)C1CCCCC1`, the Potency is reported as inconclusive: 13 µM [rising, partial curve].
For `Cc1cccc(C)c1NC(=O)CN(C)C(=O)CCC(=O)N1CCOCC1`, the Potency was inconclusive: 29.1 µM [rising, single point].
In the case of `COc1ccc(-c2nnc(SCC(=O)NCCc3ccc(OC)c(OC)c3)nc2-c2ccc(OC)cc2)cc1`, the “activity change, negative = cytotoxicity” value is reported as inactive: -5.63%.
For `CCOc1ccccc1N(C)C(=O)c1sc2ncn(CC(=O)N3CCCCC3C)c(=O)c2c1C` (stereo not given), the “activity change, negative = cytotoxicity” value was inactive: -11.8%.
In the case of `CCC(=O)NC(c1ccco1)c1cc(Cl)c2ccccc2c1O` (stereo not given), the Potency is reported as inconclusive: 5.17 µM [rising, partial curve, poor fit].
For `Cc1cccc(NC(=O)C2CC(=O)N(c3ccccc3)C2)c1C` (stereo not given), the Potency was inconclusive: 20.6 µM [cytotoxic, partial curve].
For `COc1ccc(OC2(C)CCN(Cc3ccc(-c4ccccc4)o3)C2)cc1` (stereo not given), the “activity change, negative = cytotoxicity” value was inactive: -17.1%.
In the case of `OCC[C@@H]1C[C@H](O)[C@@H](O)[C@]2(OCc3cc(C(F)(F)F)ccc32)O1`, the Potency is reported as inconclusive: 16.4 µM [cytotoxic, partial curve].
In the case of `Cc1cc(C)c(NC(=O)Cn2nc(-c3ccncc3)ccc2=O)c(C)c1`, the “activity change, negative = cytotoxicity” value is reported as inactive: 1.49%.
For `CC(=O)Nc1ccc(/C=N/N2CCCCC2)cc1`, the “activity change, negative = cytotoxicity” value was inactive: 0%.
With `COc1cccc(OCCNS(=O)(=O)c2ccccc2[N+](=O)[O-])c1` the “activity change, negative = cytotoxicity” value was inactive: -10.3%.
With `COc1cc(C(C(=O)NC2CCCC2)N(Cc2ccco2)C(=O)c2snc(C(N)=O)c2N)cc(OC)c1OC` (stereo not given) the Potency was inconclusive: 16.4 µM [cytotoxic, single point].
For `Cc1ccccc1-c1cc2c(nn1)-c1ccccc1C2=O`, the Potency was inconclusive: 29.1 µM [cytotoxic, single point].
In the case of `O=c1[nH]c(SCCOc2ccccc2F)nc2ccccc12`, the Potency is reported as inconclusive: 16.4 µM [cytotoxic, single point].
In the case of `O=C(Nc1ccn(Cc2c(F)c(F)cc(F)c2F)n1)c1ccc(COc2ccc(Cl)cc2Cl)o1`, the Potency is reported as active: 8.2 µM.
For `CCN(CC(=O)NCc1ccc(Cl)cc1)C(=O)CSc1cccc(C(F)(F)F)c1`, the Potency was inconclusive: 14.6 µM [cytotoxic, partial curve].
For `COc1ccc(C(=O)Nc2ccc(C(=O)Nc3nccs3)cc2)cc1[N+](=O)[O-]`, the “activity change, negative = cytotoxicity” value was inactive: -3.38%.
With `CCc1c(C)nc2ncnn2c1N1CCCC(C(=O)NCCc2ccc(OC)cc2)C1` (stereo not given) the Potency was active: 14.6 µM.
In the case of `CC1=Nc2cc(C(=O)NCc3ccccc3Cl)ccc2Sc2c(C)ccc(C)c21`, the Potency is reported as active: 1.46 µM.
In the case of `COc1ccc(C(=O)Nc2ccccc2Cc2ccccc2)c(OC)c1`, the Potency is reported as inconclusive: 29.1 µM [cytotoxic, single point].
For `Cc1cc(Nc2nc3ccccc3[nH]c2=O)n(-c2ccccc2)n1`, the Potency was inconclusive: 29.1 µM [cytotoxic, single point].
With `O=C(NCc1ccccc1)C(=O)Nc1nc(C23CC4CC(CC(C4)C2)C3)cs1` the Potency was active: 7.31 µM.
For `CCCCn1c(SCC(=O)c2ccccc2)nc2c(sc3ccccc32)c1=O`, the “activity change, negative = cytotoxicity” value was inactive: 10.4%.
For `O=C(Nc1cc(C(F)(F)F)ccc1-n1cncn1)c1ccc(F)cc1Cl`, the “activity change, negative = cytotoxicity” value was inactive: 13.1%.
With `O=C(O)CC1(CC(=O)N2CCOCC2)CCCC1` the “activity change, negative = cytotoxicity” value was inactive: -20.6%.
For `Cc1ccc(OCCCN2CCCC2)c(C)c1`, the “activity change, negative = cytotoxicity” value was inactive: 0%.
In the case of `CCC(c1nnnn1Cc1ccc2c(c1)OCO2)N1CCN(c2ccc(OC)cc2)CC1` (stereo not given), the Potency is reported as inconclusive: 29.1 µM [cytotoxic, single point].
In the case of `CC(=O)Nc1ccc(S(=O)(=O)N2CCSC2c2ccc(C)cc2)cc1` (stereo not given), the Potency is reported as inconclusive: 23.1 µM [cytotoxic, partial curve, poor fit].
With `O=C(Nc1ccc(S(=O)(=O)N2CCCC2)cc1)c1ccc(CN2CCc3ccccc3C2)cc1` the Potency was inconclusive: 1.03 µM [cytotoxic, full curve].
In the case of `Cc1ccc(CN2CCN(/N=C/c3ccc(C(F)(F)F)cc3)CC2)c(C)c1`, the Potency is reported as inconclusive: 16.4 µM [cytotoxic, single point].
In the case of `COc1ccc(CCNC(=S)NC(=O)c2c(-c3ccccc3Cl)noc2C)cc1OC`, the Potency is reported as inconclusive: 3.66 µM [cytotoxic, full curve, poor fit].
With `COc1ccc(OC)c(NC(=O)CN2c3cccc4cccc(c34)S2(=O)=O)c1` the Potency was active: 5.17 µM.
For `COc1ccc(NC(=S)N(Cc2ccc(Cl)cc2)Cc2ccc(C(=O)O)cc2)cc1Cl`, the “activity change, negative = cytotoxicity” value was inactive: 19.7%.
With `CCCCn1c(-c2ccc(Cl)c(Cl)c2)nc2cc3[nH]c(=O)c(C(C)C)nc3cc21` the “activity change, negative = cytotoxicity” value was inactive: -13.2%.
In the case of `COC(=O)[C@@]12C[C@@H](CC(=O)NCCC(C)C)C(=O)N(Cc3cccc4ccccc34)C1=CCC(C)(C)C2`, the Potency is reported as active: 20.6 µM.
For `O=C(CCSc1nc(-c2ccco2)cc(C(F)(F)F)n1)NCCc1ccccc1`, the Potency was inconclusive: 29.1 µM [cytotoxic, single point].
For `CN(Cc1ccccc1)C(=O)COc1ccc(-c2nnco2)cc1`, the Potency was inconclusive: 18.4 µM [cytotoxic, single point].
With `O=C(c1ccc(Cn2c(=O)[nH]c3ccccc3c2=O)cc1)N1CCN(c2ccc(Cl)cc2)CC1` the Potency was active: 20.6 µM.
With `Cc1ccc(-c2c[n+](CC(=O)N3c4ccccc4Sc4ccccc43)c3n2CCC3)cc1` the “activity change, negative = cytotoxicity” value was inactive: 27.1%.
With `O=C(Nc1nc2ccccc2[nH]1)c1cc(F)cc(F)c1` the Potency was inconclusive: 14.6 µM [cytotoxic, single point].
